US20120114667A1

Target: Macaque α5β1 (Macaque)
Test: FACS on macaque PBMC

binding: binds
B1: 5B11 (antibody, IgG2, V domains shown)
VH: QVQLVESGGGVVQPGRSVRLSCAASGFTFSSYGMHWVRQTPGKGLEWVAIIWYDGGIEYYADSVKGRFTISRDNSKNTLYLQMNSLRAEDTAVYYCARDHRYGSSWFDYWGQGTLVTVSS
VL: DIQMTQSPSSLSASVGDRVTITCRASQGINNYLAWFQQKPGKAPKSLIYAASSLQSGVPSNFSGSGSGTDFTLSISSLQPEDFATYYCQQYKSYPLTFGGGTKVEIR

binding: binds
B2: 3C5 (antibody, IgG2, V domains shown)
VH: RVQLQESGPGLVKPSQTLSLTCTVSGGSIISGGYFWTWIRQHPGKGLEWIGYIYYSGSTYYSPSLKSRVTISVDTSKNQFSLKLSSVTAADTAVYYCTRAVPAAKGYYSYYGMDVWGQGTTVTVSS
VL: DIVMTQSPLSLPVTPGEPASISCRSSQSLLHSSGYNYLDWFLQKPGQSPQLLIYLSSNRASGVPDRFSGSGSGTDFTLKISRVEAEDVGVYYCMQALQTPFTFGPGTKVDIK

These are yes or no findings as the source states them, for the method shown. A result given as binding can be weak or reduced; the word gives no strength. Each block holds one binder with its values, some of them ahead of it.
